In PubChem BioAssay AID334 (DTP/NCI, 2004):
The list shows only some results of the screen, not a fair sample: it covers a few groups of compounds. Not every dose and run of a compound is shown. T/C: endpoint of the treated group in % of that of the vehicle group. Some entries give survivors of the animals treated and no T/C: the source holds a T/C of zero for them, seemingly a mark for toxic or unscored doses. Some doses without a T/C left all or most animals alive at the check, yet need not have been tolerated: the source hardly ever lists a survival T/C far under the control, and the zero likely stands for such cases as well. Survivors were counted at the toxicity check, usually on the fifth day, unless a day is given; later deaths do not show. Schedule codes are those of the source, taken here to give the interval after Q, in days (D) or hours (H), and the number of doses after X. For survival time, the PubChem record calls one and a half times the control and up active, and a quarter to a half above the control has no call in these data; cut-offs in other NCI protocols can differ. Some T/C values are followed by the survivors on the day toxicity was checked, most often the fifth; where neither a count nor a note follows, no animal had died by that day. Some entries were tested several times; their values stand side by side, smallest first.

Tested on: CD2F1 mice, intracerebral P388 leukemia, median survival T/C%
Experiment: NCI In Vivo Anticancer Drug Screen. Data for tumor model P388 Leukemia (intracerebral) in CD2F1 (CDF1) mice
Conditions: T/C endpoint: median survival time, schedule: Q03HX008 (ip), vehicle: saline, higher T/C = longer survival
Procedure: The antitumor activity of compounds was measured in mice bearing transplantable tumors. Survival or tumor size were measured and the results are expressed as the measurement made in the treated group (T) divided by the measurement made in the vehicle treated control group (C). The tumor model used in this assay is P388 Leukemia (intracerebral) in CD2F1 (CDF1) mice

Q: Which results are given for `O=C(O)CCc1ccc(N(CCCl)CCCl)cc1`?
A: T/C (dose: 0.24 mg/kg/injection): 100 % of control [9 of 10 alive]; T/C (dose: 0.48 mg/kg/injection): 100 % of control; T/C (dose: 0.95 mg/kg/injection): 100 % of control; T/C (dose: 1.9 mg/kg/injection): 105 % of control; T/C (dose: 3.8 mg/kg/injection): 105 % of control; survivor count (dose: 3.8 mg/kg/injection): 10 of 10; T/C (dose: 7.6 mg/kg/injection): 110 and 126 % of control [9 of 10 alive]; survivor count (dose: 15.2 mg/kg/injection): 4 of 10; survivor count (dose: 30.4 mg/kg/injection): 0 of 10
